Publication PMC10801253
Results are given in words; binding and its absence hold for the method and conditions named. In cells and extracts the contact can be indirect. These calls come from enrichment with a bait or labelling near it, and not all partners need be listed.

Chains of the proteins cited; added tags and fusions are not shown.
UniProt P40337: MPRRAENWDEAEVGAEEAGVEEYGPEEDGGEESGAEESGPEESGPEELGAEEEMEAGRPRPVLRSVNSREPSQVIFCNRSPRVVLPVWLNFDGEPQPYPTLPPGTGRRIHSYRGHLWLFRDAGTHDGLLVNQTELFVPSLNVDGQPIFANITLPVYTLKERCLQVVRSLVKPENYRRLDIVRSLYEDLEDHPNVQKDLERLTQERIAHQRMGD

Biological target: T1, BioID2-FOXA2 (human) (UniProt Q9Y261)
T1 sequence: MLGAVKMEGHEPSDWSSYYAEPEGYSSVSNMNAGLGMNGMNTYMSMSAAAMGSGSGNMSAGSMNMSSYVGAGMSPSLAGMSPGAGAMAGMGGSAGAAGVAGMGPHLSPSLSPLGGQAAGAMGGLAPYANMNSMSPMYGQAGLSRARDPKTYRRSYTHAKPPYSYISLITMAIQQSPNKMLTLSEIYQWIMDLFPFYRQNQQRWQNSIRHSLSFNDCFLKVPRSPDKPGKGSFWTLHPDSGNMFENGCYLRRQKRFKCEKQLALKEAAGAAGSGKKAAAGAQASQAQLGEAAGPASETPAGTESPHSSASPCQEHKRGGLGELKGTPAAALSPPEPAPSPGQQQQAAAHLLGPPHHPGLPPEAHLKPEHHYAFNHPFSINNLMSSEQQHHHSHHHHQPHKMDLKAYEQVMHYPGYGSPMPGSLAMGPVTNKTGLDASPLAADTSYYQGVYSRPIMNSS
Experiment: proximity labelling; BioID2-FOXA2 or BioID2 alone transfected into ACHN cells; 50 μM biotin for 18 h; lysis in 50 mM Tris-HCl pH 7.4, 500 mM NaCl, 0.4% SDS; biotinylated proteins captured on streptavidin agarose, washed with 8 M urea, analysed by LC-MS/MS

binding: binds
Substance: VHL (von Hippel-Lindau) (from UniProt P40337 1-213)
